Laboratory results published in the supplement of paper PMC12889115.
Some of the results follow. Values are raw readings; no control value is given beside them.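 In the initial screen, polymyxin B was used at a concentration that permeabilizes Salmonella's outer membrane but not its inner membrane. Maximum growth was set by DMSO wells with or without polymyxin B. Since plates varied, data were ranked per plate, and compounds giving the lowest OD600 advanced as hits.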

Test system: Salmonella enterica serovar Typhimurium SL1344
Assay: bacterial growth OD600 after 18 h with compound and polymyxin B; higher = more bacterial growth (less inhibition)
Conditions: 50 µM, Mueller-Hinton broth

Row | SMILES | bacterial growth OD600 (polymyxin B 1 µg/mL) | bacterial growth OD600 (polymyxin B 0.75 µg/mL)
1 | Cc1cnc(C(=O)N2CCCC(C(=O)c3ccc(Oc4ccccc4)cc3)C2)cn1 (centres undefined) | 0.553 | –
2 | O=C(CCc1ccccc1)Nc1ccnn1C1CCN(Cc2nccs2)CC1 | 0.901 | –
3 | CCCc1cc(CN(C)C(=O)CC2(c3ccccc3Cl)CC(=O)N(CCCOC)C2=O)n[nH]1 (centres undefined) | – | 0.718
4 | CCNC(=O)c1cn(CC(C)C)cc(C(=O)NCc2ccc(OC)cc2)c1=O | – | 0.751
5 | COc1ccc2c(c1)OC(C)CN(C(=O)/C(F)=C/c1ccccc1)C2 (centres undefined) | – | 0.002
6 | Cc1ccccc1CC(C1CCN(C(=O)c2ccc3ncccc3c2)CC1)N(C)C(=O)Cn1cccn1 (centres undefined) | – | 0.805
7 | COc1ccc(CCC(=O)N2CCCC(c3nc(C)ncc3-c3cccc(C)c3)C2)cc1OC (centres undefined) | – | 1.04
8 | COc1cc(OC)c(CN2CCC(CO)(CCOc3ccccc3)CC2)c(OC)c1 | 0.817 | –
9 | COc1ccc(CN2CCNC(=O)C2CC(=O)N(C)CCc2ccccc2)c(F)c1 (centres undefined) | 0.84 | –
10 | O=C(/C=C/c1ccccc1)N1CCCC(c2nc(-c3ccncc3)ncc2-c2ccccc2)C1 (centres undefined) | – | -0.005
11 | CN(Cc1ccccn1)C(=O)CC1(c2cccc(C(F)(F)F)c2)CC(=O)N(C2CC2)C1=O (centres undefined) | – | 0.851
12 | O=C(c1ccc(N2CCC(NCCC(c3ccccc3)c3ccccc3)CC2)cc1)N1CCOCC1 | – | 1.02
13 | Cc1nc(N2CCC(C(=O)N3CCN(C(=O)c4ccco4)CC3)CC2)nc2ccc(C(C)C)cc12 | – | 0.811
14 | CN(C(=O)CC1C(=O)NCCN1Cc1ccccn1)C1CC(C)(C)NC(C)(C)C1 (centres undefined) | 1.02 | –
15 | COc1ccc(C(=O)NC2CC2)c(OC2CCN(C3Cc4ccccc4C3)CC2)c1 | – | 0.745
16 | CCn1ccnc1CN(C)C(=O)c1cn(Cc2ccccc2Cl)nn1 | 0.843 | –
17 | COCCN1CCCC2(CCN(C(=O)CC3CCCCC3)C2)C1=O (centres undefined) | 0.917 | –
18 | CSCC(=O)N1CCC(C2CCN(c3ncccn3)CC2)C1 (centres undefined) | 1.04 | –
19 | O=C1CCCN1CCC(=O)N1CCCC(CCc2cccc(F)c2)C1 (centres undefined) | – | 0.861

Three entries out of the list, arranged by molecular weight, ascending.
Row | SMILES | bacterial growth OD600 (polymyxin B 1 µg/mL) | bacterial growth OD600 (polymyxin B 0.75 µg/mL)
17 | COCCN1CCCC2(CCN(C(=O)CC3CCCCC3)C2)C1=O (centres undefined) | 0.917 | –
16 | CCn1ccnc1CN(C)C(=O)c1cn(Cc2ccccc2Cl)nn1 | 0.843 | –
13 | Cc1nc(N2CCC(C(=O)N3CCN(C(=O)c4ccco4)CC3)CC2)nc2ccc(C(C)C)cc12 | – | 0.811
